Test results from PMC3247260.
These are yes or no findings as the source states them, for the method shown.

Sequences of proteins named here, by UniProt entry; tags and fusion partners are left off. Residues count along the entry.
UniProt P63165, residues 1-97: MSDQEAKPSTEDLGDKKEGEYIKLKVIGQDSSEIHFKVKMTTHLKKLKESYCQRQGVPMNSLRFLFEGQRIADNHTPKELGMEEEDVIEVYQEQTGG
UniProt P61956: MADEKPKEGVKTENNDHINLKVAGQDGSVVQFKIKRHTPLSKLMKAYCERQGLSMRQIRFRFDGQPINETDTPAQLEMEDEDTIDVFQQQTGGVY

What was measured:
[1] = molecular target: GST-fused SUMO1 (UniProt P63165); assay: pull-down; GST-fused Ub, ISG15, SUMO1 or SUMO2 loaded on glutathione agarose, USP13 or USP13-UBA12 (~100 µM) added; 1-hr incubation, washed three times, eluted by GSH buffer; SDS-PAGE with Coomassie blue staining; both purified
[2] = molecular target: GST-fused SUMO2 (UniProt P61956); assay: as above

binding [1]: no binding
binding [2]: no binding
B1: USP13 (residues 21-863) (enzyme, UniProt Q92995 21-863)
chain: AGDIGELLVPHMPTIRVPRSGDRVYKNECAFSYDSPNSEGGLYVCMNTFLAFGREHVERHFRKTGQSVYMHLKRHVREKVRGASGGALPKRRNSKIFLDLDTDDDLNSDDYEYEDEAKLVIFPDHYEIALPNIEELPALVTIACDAVLSSKSPYRKQDPDTWENELPVSKYANNLTQLDNGVRIPPSGWKCARCDLRENLWLNLTDGSVLCGKWFFDSSGGNGHALEHYRDMGYPLAVKLGTITPDGADVYSFQEEEPVLDPHLAKHLAHFGIDMLHMHGTENGLQDNDIKLRVSEWEVIQESGTKLKPMYGPGYTGLKNLGNSCYLSSVMQAIFSIPEFQRAYVGNLPRIFDYSPLDPTQDFNTQMTKLGHGLLSGQYSKPPVKSELIEQVMKEEHKPQQNGISPRMFKAFVSKSHPEFSSNRQQDAQEFFLHLVNLVERNRIGSENPSDVFRFLVEERIQCCQTRKVRYTERVDYLMQLPVAMEAATNKDELIAYELTRREAEANRRPLPELVRAKIPFSACLQAFSEPENVDDFWSSALQAKSAGVKTSRFASFPEYLVVQIKKFTFGLDWVPKKFDVSIDMPDLLDINHLRARGLQPGEEELPDISPPIVIPDDSKDRLMNQLIDPSDIDESSVMQLAEMGFPLEACRKAVYFTGNMGAEVAFNWIIVHMEEPDFAEPLTMPGYGGAASAGASVFGASGLDNQPPEEIVAIITSMGFQRNQAIQALRATNNNLERALDWIFSHPEFEEDSDFVIEMENNANANIISEAKPEGPRVKDGSGTYELFAFISHMGTSTMSGHYICHIKKEGRWVIYNDHKVCASERPPKDLGYMYFYRRIPS
